# Data: the supplement of paper PMC8728848
# Some of the results follow.
# B1: Intelectin-1a (Mus musculus) (protein)
# chain: AEWSHPQFEKAEENLDTNRWGNSFFSSLPRSCKEIKQEHTKAQDGLYFLRTKNGVIYQTFCDMTTAGGGWTLVASVHENNMRGKCTVGDRWSSQQGNRADYPEGDGNWANYNTFGSAEAATSDDYKNPGYFDIQAENLGIWHVPNKSPLHNWRKSSLLRYRTFTGFLQHLGHNLFGLYKKYPVKYGEGKCWTDNGPALPVVYDFGDARKTASYYSPSGQREFTAGYVQFRVFNNERAASALCAGVRVTGCNTEHHCIGGGGFFPEGNPVQCGDFASFDWDGYGTHNGYSSSRKITEAAVLLFYR
# Tests used:
# Assay in all cases: glycan array binding signal (z-score within array); higher = stronger binding
# Settings in all cases: glycan notation: IUPAC condensed, linker removed
# Glc(a1-4)Glc = target: Glc(a1-4)Glc
# Procedure, shortened: (§1)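 The binding signal is a Z-score computed within each array and averaged over linkers. Arrays of the same protein sequence at different concentrations or buffers were also averaged together. Data originate from 3228 arrays in the Consortium for Functional Glycomics database, kept only where the protein sequence was available.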
# [1] = target: Glc(a1-4)Glc(a1-4)Glc(a1-4)Glc
# Procedure, shortened: as §1
# Glc(a1-6)Glc(a1-6)Glc = target: Glc(a1-6)Glc(a1-6)Glc
# Procedure, shortened: as §1
# [2] = target: Glc(a1-6)Glc(a1-6)Glc(a1-6)Glc
# Procedure, shortened: as §1
# Glc(b1-4)Glc = target: Glc(b1-4)Glc
# Procedure, shortened: as §1
# Glc(b1-6)Glc = target: Glc(b1-6)Glc
# Procedure, shortened: as §1
# GlcA(b1-3)Gal = target: GlcA(b1-3)Gal
# Procedure, shortened: as §1
# GlcA(b1-3)GlcNAc = target: GlcA(b1-3)GlcNAc
# Procedure, shortened: as §1
# GlcA(b1-6)Gal = target: GlcA(b1-6)Gal
# Procedure, shortened: as §1
# [3] = target: GlcNAc(a1-3)Gal(b1-4)GlcNAc
# Procedure, shortened: as §1
# [4] = target: GlcNAc(a1-4)Gal(b1-3)GlcNAc
# Procedure, shortened: as §1
# [5] = target: GlcNAc(a1-4)Gal(b1-4)GalNAc
# Procedure, shortened: as §1
# [6] = target: GlcNAc(a1-4)Gal(b1-4)GlcNAc
# Procedure, shortened: as §1
# [7] = target: GlcNAc(a1-4)Gal(b1-4)GlcNAc(b1-3)Gal(b1-4)Glc
# Procedure, shortened: as §1
# [8] = target: GlcNAc(a1-4)Gal(b1-4)GlcNAc(b1-3)Gal(b1-4)GlcNAc
# Procedure, shortened: as §1
# [9] = target: GlcNAc(a1-4)Gal(b1-4)GlcNAc(b1-3)Gal(b1-4)GlcNAc(b1-3)Gal(b1-4)GlcNAc
# Procedure, shortened: as §1
# [10] = target: GlcNAc(a1-4)Gal(b1-4)GlcNAc(b1-3)Gal(b1-4)[Fuc(a1-3)]GlcNAc(b1-3)Gal(b1-4)[Fuc(a1-3)]GlcNAc
# Procedure, shortened: as §1
# [11] = target: GlcNAc(a1-6)Gal(b1-4)GlcNAc
# Procedure, shortened: as §1
# [12] = target: GlcNAc(b1-2)Gal(b1-3)GalNAc
# Procedure, shortened: as §1
# [13] = target: GlcNAc(b1-2)Man(a1-3)[GlcNAc(b1-2)Man(a1-6)]Man(b1-4)GlcNAc(b1-4)GlcNAc
# Procedure, shortened: as §1
# [14] = target: GlcNAc(b1-2)Man(a1-3)[GlcNAc(b1-2)Man(a1-6)]Man(b1-4)GlcNAc(b1-4)[Fuc(a1-6)]GlcNAc
# Procedure, shortened: as §1
# [15] = target: GlcNAc(b1-2)Man(a1-3)[GlcNAc(b1-4)][GlcNAc(b1-2)Man(a1-6)]Man(b1-4)GlcNAc(b1-4)GlcNAc
# Procedure, shortened: as §1
# [16] = target: GlcNAc(b1-2)[GlcNAc(b1-4)]Man(a1-3)[GlcNAc(b1-2)Man(a1-6)]Man(b1-4)GlcNAc(b1-4)GlcNAc
# Procedure, shortened: as §1
# [17] = target: GlcNAc(b1-2)[GlcNAc(b1-4)]Man(a1-3)[GlcNAc(b1-4)][GlcNAc(b1-2)Man(a1-6)]Man(b1-4)GlcNAc(b1-4)GlcNAc
# Procedure, shortened: as §1
# [18] = target: GlcNAc(b1-2)[GlcNAc(b1-4)]Man(a1-3)[GlcNAc(b1-4)][GlcNAc(b1-2)[GlcNAc(b1-6)]Man(a1-6)]Man(b1-4)GlcNAc(b1-4)GlcNAc
# Procedure, shortened: as §1
# [19] = target: GlcNAc(b1-2)[GlcNAc(b1-4)]Man(a1-3)[GlcNAc(b1-4)][GlcNAc(b1-2)[GlcNAc(b1-6)]Man(a1-6)]Man(b1-4)GlcNAc(b1-4)[Fuc(a1-6)]GlcNAc
# Procedure, shortened: as §1
# [20] = target: GlcNAc(b1-2)[GlcNAc(b1-6)]Man(a1-6)[GlcNAc(b1-2)Man(a1-3)]Man(b1-4)GlcNAc(b1-4)GlcNAc
# Procedure, shortened: as §1
# [21] = target: GlcNAc(b1-2)[GlcNAc(b1-6)]Man(a1-6)[GlcNAc(b1-2)Man(a1-3)]Man(b1-4)GlcNAc(b1-4)[Fuc(a1-6)]GlcNAc
# Procedure, shortened: as §1
# [22] = target: GlcNAc(b1-2)[GlcNAc(b1-6)]Man(a1-6)[GlcNAc(b1-2)Man(a1-3)][GlcNAc(b1-4)]Man(b1-4)GlcNAc(b1-4)GlcNAc
# Procedure, shortened: as §1
# GlcNAc(b1-3)Gal = target: GlcNAc(b1-3)Gal
# Procedure, shortened: as §1
# [23] = target: GlcNAc(b1-3)Gal(b1-3)GalNAc
# Procedure, shortened: as §1
# GlcNAc(b1-3)Gal(b1-4)Glc = target: GlcNAc(b1-3)Gal(b1-4)Glc
# Procedure, shortened: as §1
# [24] = target: GlcNAc(b1-3)Gal(b1-4)GlcNAc
# Procedure, shortened: as §1
# [25] = target: GlcNAc(b1-3)Gal(b1-4)GlcNAc(b1-3)Gal(b1-4)GlcNAc
# Procedure, shortened: as §1
# GlcNAc(b1-3)GalNAc = target: GlcNAc(b1-3)GalNAc
# Procedure, shortened: as §1
# GlcNAc(b1-3)Man = target: GlcNAc(b1-3)Man
# Procedure, shortened: as §1
# [26] = target: GlcNAc(b1-3)[GlcNAc(b1-4)][GlcNAc(b1-6)]GlcNAc
# Procedure, shortened: as §1
binder,measurement,setting,value
B1,glycan array binding signal (z-score),Glc(a1-4)Glc,-0.363
same,glycan array binding signal (z-score),[1],-0.365
same,glycan array binding signal (z-score),Glc(a1-6)Glc(a1-6)Glc,-0.027
same,glycan array binding signal (z-score),[2],-0.709
same,glycan array binding signal (z-score),Glc(b1-4)Glc,2.2
same,glycan array binding signal (z-score),Glc(b1-6)Glc,-0.107
same,glycan array binding signal (z-score),GlcA(b1-3)Gal,0.662
same,glycan array binding signal (z-score),GlcA(b1-3)GlcNAc,-0.766
same,glycan array binding signal (z-score),GlcA(b1-6)Gal,0.449
same,glycan array binding signal (z-score),[3],-0.597
same,glycan array binding signal (z-score),[4],0.388
same,glycan array binding signal (z-score),[5],0.731
same,glycan array binding signal (z-score),[6],0.718
same,glycan array binding signal (z-score),[7],-0.164
same,glycan array binding signal (z-score),[8],-0.503
same,glycan array binding signal (z-score),[9],1.47
same,glycan array binding signal (z-score),[10],5.84
same,glycan array binding signal (z-score),[11],-0.329
same,glycan array binding signal (z-score),[12],1.57
same,glycan array binding signal (z-score),[13],0.445
same,glycan array binding signal (z-score),[14],2.36
same,glycan array binding signal (z-score),[15],-0.689
same,glycan array binding signal (z-score),[16],-1.01
same,glycan array binding signal (z-score),[17],-0.176
same,glycan array binding signal (z-score),[18],-0.488
same,glycan array binding signal (z-score),[19],-0.031
same,glycan array binding signal (z-score),[20],-0.259
same,glycan array binding signal (z-score),[21],0.249
same,glycan array binding signal (z-score),[22],0.239
same,glycan array binding signal (z-score),GlcNAc(b1-3)Gal,-1.15
same,glycan array binding signal (z-score),[23],-0.724
same,glycan array binding signal (z-score),GlcNAc(b1-3)Gal(b1-4)Glc,-0.427
same,glycan array binding signal (z-score),[24],-0.295
same,glycan array binding signal (z-score),[25],-0.263
same,glycan array binding signal (z-score),GlcNAc(b1-3)GalNAc,-0.491
same,glycan array binding signal (z-score),GlcNAc(b1-3)Man,-0.353
same,glycan array binding signal (z-score),[26],-1.44
